PubChem BioAssay AID720505, Drosophila RNAi Screening Center, 2013
Screen: 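Knock-downs that reduce calcium influx once internal stores are emptied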 (primary screen). System: Drosophila S2R+ cells. Reagent: long dsRNA against Drosophila genes. Challenge: thapsigargin (2 µM) in calcium-free buffer to empty internal stores, then 2 mM calcium added back. Measurement: 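Fluo-4 signal in 384-well plates read on a FLIPR after thapsigargin (2 µM, calcium-free) store depletion and 2 mM calcium add-back; unnormalised mean endpoint per well; screen run twice, selected wells retested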. Direction: calcium signal and retest calcium signal: higher = more calcium entry after store depletion. Rule for the call: 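About 1500 genes called as lowering calcium entry, by varying amounts, judged against per-plate control wells with STIM1 as positive and Rho1 as negative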. Meaning of the calls: active = called as lowering calcium entry; inactive = not called.
The screen tested about 20,000 reagents; shown is an unselected part of those with a known target gene and a result. Over the whole deposit, about 2,100 (10%) are marked active. 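Raw plate signals without normalisation; calls rest on control-based scores that were not deposited; replicate 2 separates called from uncalled poorly.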 Unmarked entries are inactive. Reagents against one gene are numbered here. Not stated in the record: the amount of reagent, the time to read-out.

no.	gene	dsRNA no.	calcium signal, replicate 1	calcium signal, replicate 2	retest calcium signal, replicate 1	retest calcium signal, replicate 2
1	CG15629	1	196	112		
2	Cpr49Ab	1	95.9	126		
3	Lint-1	1	130	65.3		
4	drm	1	164	109		
5	CG9663	1	128	221		
6	MAGE	1	77.7 (active)	139		
7	GluRIIA	1	123	110		
8	lncRNA:CR32658	1	107	93.9		
9	CG42750	1	68.7 (active)	49.8	104	86.6
10	CG42750	2	109	98		
11	CG42750	3	67.4 (active)	104		
12	CG42750	4	164	117		
13	CG42750	5	144	156		
14	lncRNA:Hsromega	1	73.7	156		
15	fl(2)d	1	122	205		
16	CG7156	1	151	194		
17	aly	1	79.6	121		
18	aly	2	145	104		
19	CG9806	1	94.3	123		
20	Proc-R	1	189	111		
21	CheB53a	1	156	138		
22	CG14277	1	156	132		
23	chico	1	123	125		
24	Cyp313a1	1	103	135		
25	CG11597	1	91.7	116		
26	jub	1	103	74.7		
27	Gpdh3	1	183	133		
28	mRpL9	1	131	147		
29	CG43707	1	182	96.4		
30	CG43707	2	59.7 (active)	98		
31	CG43707	3	105	178		
32	CG33514	1	73.4	88	85.9	93.1
33	CG33514	2	81.9	82		
34	CG33514	3	209	99.9		

5 consecutive entries from above, quoted:
no.	gene	dsRNA no.	calcium signal, replicate 1	calcium signal, replicate 2	retest calcium signal, replicate 1	retest calcium signal, replicate 2
15	fl(2)d	1	122	205		
16	CG7156	1	151	194		
17	aly	1	79.6	121		
18	aly	2	145	104		
19	CG9806	1	94.3	123		
